According to PubChem BioAssay AID270 (DTP/NCI, 2004):
The list is a part of this screen's results and no random one: it gathers some chemical classes. Other doses and runs of a compound may be missing. T/C gives the treated animals as a percentage of the vehicle group. Schedules are NCI's codes, read here as Q, the interval in days (D) or hours (H), X, the number of doses. Some entries show no survivor count and are marked so; the dose need not have been tolerated. Some T/C values are followed by the survivors on the day toxicity was checked; without a count or a note in brackets, all were alive then. Some entries give survivors of the animals treated and no T/C: the source holds a T/C of zero for them, seemingly a mark for toxic or unscored doses. Some doses without a T/C left all or most animals alive at the check, yet need not have been tolerated: the source hardly ever lists a survival T/C far under the control, and the zero likely stands for such cases as well. Counts of survivors are from the toxicity check (mostly the fifth day) where no day follows; animals may have died later. Counts of survivors are from the toxicity check, whose day is not always given; animals may have died later. For survival time, the PubChem record calls one and a half times the control and up active, and a quarter to a half above the control has no call in these data; cut-offs in other NCI protocols can differ. Some T/C values are followed by the survivors on the day toxicity was checked, most often the fifth; where neither a count nor a note follows, no animal had died by that day.

Tested on: BDF1 mice, s.c. Lewis lung carcinoma, T/C %
Assay: NCI In Vivo Anticancer Drug Screen. Data for tumor model Lewis Lung Carcinoma (subcutaneous) in B6D2F1 (BDF1) mice
Protocol: The antitumor activity of compounds was measured in mice bearing transplantable tumors. Survival or tumor size were measured and the results are expressed as the measurement made in the treated group (T) divided by the measurement made in the vehicle treated control group (C). The tumor model used in this assay is Lewis Lung Carcinoma (subcutaneous) in B6D2F1 (BDF1) mice

Question: Which results are given for `BrCc1cccc(CBr)c1`?
Answer: T/C (T/C endpoint: mean tumor weight, dose: 2.3 mg/kg/injection, schedule: Q01DX011 (ip), vehicle: acid diluted with saline, evaluated on day 12, higher T/C = larger tumour): 58 % of control [5 of 6 alive]; T/C (T/C endpoint: mean tumor weight, dose: 4.5 mg/kg/injection, schedule: Q01DX011 (ip), vehicle: acid diluted with saline, evaluated on day 12, higher T/C = larger tumour): 105 % of control; T/C (T/C endpoint: mean tumor weight, dose: 9.0 mg/kg/injection, schedule: Q01DX011 (ip), vehicle: acid diluted with saline, evaluated on day 12, higher T/C = larger tumour): 58 % of control; T/C (T/C endpoint: mean tumor weight, dose: 9.0 mg/kg/injection, schedule: Q01DX011 (ip), vehicle: other, evaluated on day 12, higher T/C = larger tumour): 153 % of control; T/C (T/C endpoint: mean tumor weight, dose: 18.0 mg/kg/injection, schedule: Q01DX011 (ip), vehicle: acid diluted with saline, evaluated on day 12, higher T/C = larger tumour): 62 % of control; T/C (T/C endpoint: mean tumor weight, dose: 18.0 mg/kg/injection, schedule: Q01DX011 (ip), vehicle: other, evaluated on day 12, higher T/C = larger tumour): 108 % of control; T/C (T/C endpoint: mean tumor weight, dose: 36.0 mg/kg/injection, schedule: Q01DX011 (ip), vehicle: other, evaluated on day 12, higher T/C = larger tumour): 126 % of control; T/C (T/C endpoint: mean tumor weight, dose: 54.0 mg/kg/injection, schedule: Q01DX011 (ip), vehicle: other, evaluated on day 12, higher T/C = larger tumour): 93 % of control; survivor count (T/C endpoint: mean tumor weight, dose: 54.0 mg/kg/injection, schedule: Q01DX011 (ip), vehicle: other, higher T/C = larger tumour): 1 of 6; survivor count (T/C endpoint: mean tumor weight, dose: 108.0 mg/kg/injection, schedule: Q01DX011 (ip), vehicle: other, higher T/C = larger tumour): 0 of 6; survivor count (T/C endpoint: mean tumor weight, dose: 162.0 mg/kg/injection, schedule: Q01DX011 (ip), vehicle: other, higher T/C = larger tumour): 0 of 6

Question: `O[C@H](CNCCCl)[C@@H](O)CNCCCl` was tested. Which T/C (T/C endpoint: mean tumor weight, dose: 4.5 mg/kg/injection, schedule: Q01DX011 (ip), vehicle: saline, evaluated on day 12, higher T/C = larger tumour) did it give?
Answer: 72 % of control

Question: What about the T/C (T/C endpoint: mean tumor weight, dose: 9.0 mg/kg/injection, schedule: Q01DX011 (ip), vehicle: saline, evaluated on day 12, higher T/C = larger tumour) of the same molecule?
Answer: 77 % of control

Question: What about the survivor count (T/C endpoint: mean tumor weight, dose: 18.0 mg/kg/injection, schedule: Q01DX011 (ip), vehicle: saline, higher T/C = larger tumour) of the same molecule?
Answer: 1 of 6

Question: What about the survivor count (T/C endpoint: mean tumor weight, dose: 36.0 mg/kg/injection, schedule: Q01DX011 (ip), vehicle: saline, higher T/C = larger tumour) of the same molecule?
Answer: 0 of 6

Question: For `CCOC(=O)C(CCSC)NC(=O)OCCNCCCl` (centres undefined), which T/C (T/C endpoint: median survival time, dose: 12.5 mg/kg/injection, schedule: Q01DX009 (ip), vehicle: saline, higher T/C = longer survival) is on record?
Answer: 99 % of control

Question: And the T/C (T/C endpoint: median survival time, dose: 25.0 mg/kg/injection, schedule: Q01DX009 (ip), vehicle: saline, higher T/C = longer survival)?
Answer: 102 % of control

Question: What about the T/C (T/C endpoint: median survival time, dose: 50.0 mg/kg/injection, schedule: Q01DX009 (ip), vehicle: saline, higher T/C = longer survival) of the same molecule?
Answer: 114 % of control [9 of 10 alive]

Question: What about the survivor count (T/C endpoint: median survival time, dose: 100.0 mg/kg/injection, schedule: Q01DX009 (ip), vehicle: saline, higher T/C = longer survival) of the same molecule?
Answer: 8 of 10

Question: With `CCOP(=O)(CCBr)OCC` as the molecule, how does the T/C (T/C endpoint: mean tumor weight, dose: 148.0 mg/kg/injection, schedule: Q01DX011 (ip), vehicle: other, evaluated on day 12, higher T/C = larger tumour) read?
Answer: 107 % of control

Question: And the T/C (T/C endpoint: mean tumor weight, dose: 222.0 mg/kg/injection, schedule: Q01DX011 (ip), vehicle: other, evaluated on day 12, higher T/C = larger tumour)?
Answer: 70 % of control

Question: What about the T/C (T/C endpoint: mean tumor weight, dose: 333.0 mg/kg/injection, schedule: Q01DX011 (ip), vehicle: other, evaluated on day 12, higher T/C = larger tumour) of the same molecule?
Answer: 81 % of control [5 of 6 alive]

Question: What about the T/C (T/C endpoint: mean tumor weight, dose: 500.0 mg/kg/injection, schedule: Q01DX011 (ip), vehicle: other, evaluated on day 12, higher T/C = larger tumour) of the same molecule?
Answer: 84 % of control

Question: For `N/C(=N\[N+](=O)[O-])N(CCO[N+](=O)[O-])N=O`, which T/C (T/C endpoint: mean tumor weight, dose: 2.5 mg/kg/injection, schedule: Q01DX011 (ip), vehicle: saline, evaluation day not shown, higher T/C = larger tumour) is on record?
Answer: 66 % of control [survivor count not shown]

Question: What about the T/C (T/C endpoint: mean tumor weight, dose: 5.0 mg/kg/injection, schedule: Q01DX011 (ip), vehicle: saline, evaluation day not shown, higher T/C = larger tumour) of the same molecule?
Answer: 28 % of control [survivor count not shown]

Question: What about the T/C (T/C endpoint: mean tumor weight, dose: 10.0 mg/kg/injection, schedule: Q01DX011 (ip), vehicle: saline, evaluation day not shown, higher T/C = larger tumour) of the same molecule?
Answer: 106 % of control [survivor count not shown]

Question: How did the T/C (T/C endpoint: mean tumor weight, dose: 0.3 mg/kg/injection, schedule: Q01DX011 (ip), vehicle: saline, evaluated on day 12, higher T/C = larger tumour) turn out when `O[C@H](CNCCBr)[C@@H](O)CNCCBr` was run?
Answer: 122 % of control

Question: What about the T/C (T/C endpoint: mean tumor weight, dose: 0.5 mg/kg/injection, schedule: Q01DX011 (ip), vehicle: saline, evaluated on day 12, higher T/C = larger tumour) of the same molecule?
Answer: 49 % of control

Question: What about the T/C (T/C endpoint: mean tumor weight, dose: 1.0 mg/kg/injection, schedule: Q01DX011 (ip), vehicle: saline, evaluated on day 12, higher T/C = larger tumour) of the same molecule?
Answer: 159 % of control

Question: And the T/C (T/C endpoint: mean tumor weight, dose: 2.0 mg/kg/injection, schedule: Q01DX011 (ip), vehicle: other, evaluated on day 12, higher T/C = larger tumour)?
Answer: 139 % of control

Question: And the T/C (T/C endpoint: mean tumor weight, dose: 2.0 mg/kg/injection, schedule: Q01DX011 (ip), vehicle: saline, evaluated on day 12, higher T/C = larger tumour)?
Answer: 66 % of control

Question: And the T/C (T/C endpoint: mean tumor weight, dose: 4.0 mg/kg/injection, schedule: Q01DX011 (ip), vehicle: other, evaluated on day 12, higher T/C = larger tumour)?
Answer: 67 % of control [5 of 6 alive]

Question: And the survivor count (T/C endpoint: mean tumor weight, dose: 8.0 mg/kg/injection, schedule: Q01DX011 (ip), vehicle: other, higher T/C = larger tumour)?
Answer: 0 of 6

Question: What about the survivor count (T/C endpoint: mean tumor weight, dose: 16.0 mg/kg/injection, schedule: Q01DX011 (ip), vehicle: other, higher T/C = larger tumour) of the same molecule?
Answer: 0 of 6
